Test results from doi:10.1101/2022.04.26.489478.
No constants are given. Whether binding was seen depends on the method and setting. Some binding calls cover weakened binding; strength is not graded here. Sequences can lack the tags named with a protein.

The chains behind the UniProt entries cited, without tags or fusion partners. Residues count along the entry.
UniProt O95166, residues 3-116: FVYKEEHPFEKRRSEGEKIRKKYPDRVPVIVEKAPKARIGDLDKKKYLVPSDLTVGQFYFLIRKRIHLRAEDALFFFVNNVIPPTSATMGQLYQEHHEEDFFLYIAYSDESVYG

Target: T1, mCherry tagged HsC53 (human) (UniProt Q96JB5)
T1 sequence: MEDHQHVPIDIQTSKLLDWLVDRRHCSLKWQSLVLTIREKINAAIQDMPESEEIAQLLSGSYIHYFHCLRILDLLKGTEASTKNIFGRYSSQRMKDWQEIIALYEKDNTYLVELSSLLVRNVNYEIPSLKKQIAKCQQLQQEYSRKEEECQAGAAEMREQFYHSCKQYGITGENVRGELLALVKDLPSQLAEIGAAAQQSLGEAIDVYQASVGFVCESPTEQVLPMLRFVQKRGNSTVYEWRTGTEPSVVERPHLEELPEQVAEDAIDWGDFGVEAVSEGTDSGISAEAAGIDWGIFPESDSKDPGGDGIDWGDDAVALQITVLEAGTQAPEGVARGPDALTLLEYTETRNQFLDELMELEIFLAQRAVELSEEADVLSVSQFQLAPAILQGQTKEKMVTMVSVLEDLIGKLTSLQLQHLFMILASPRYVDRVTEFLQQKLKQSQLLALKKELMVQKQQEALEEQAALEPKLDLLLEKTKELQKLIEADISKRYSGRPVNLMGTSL
Test: microscopy-based on-bead protein-protein interaction assay

binding: binds
Substance: GABARAP (from UniProt O95166 3-116)
